Amino acid sequences for entries named in this document (tags omitted). Residues count along the entry.
UniProt Q96PZ2, 1-254: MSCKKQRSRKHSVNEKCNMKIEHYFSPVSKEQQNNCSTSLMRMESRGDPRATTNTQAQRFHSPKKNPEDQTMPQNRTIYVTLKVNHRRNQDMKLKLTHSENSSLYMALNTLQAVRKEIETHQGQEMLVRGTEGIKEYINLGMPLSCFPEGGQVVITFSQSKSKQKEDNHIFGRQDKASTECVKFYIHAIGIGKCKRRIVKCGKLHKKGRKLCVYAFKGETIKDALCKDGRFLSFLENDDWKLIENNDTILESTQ
UniProt Q96PZ2, 1-282 F231A: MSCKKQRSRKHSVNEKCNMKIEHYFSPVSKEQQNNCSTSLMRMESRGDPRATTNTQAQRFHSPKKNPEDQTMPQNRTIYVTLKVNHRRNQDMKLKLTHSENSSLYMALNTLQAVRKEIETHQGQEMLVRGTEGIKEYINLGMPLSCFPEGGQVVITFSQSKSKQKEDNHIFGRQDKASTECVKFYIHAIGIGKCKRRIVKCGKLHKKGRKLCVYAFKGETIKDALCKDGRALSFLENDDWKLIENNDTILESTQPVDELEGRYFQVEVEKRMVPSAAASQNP
UniProt Q96PZ2, 176-282 F231A: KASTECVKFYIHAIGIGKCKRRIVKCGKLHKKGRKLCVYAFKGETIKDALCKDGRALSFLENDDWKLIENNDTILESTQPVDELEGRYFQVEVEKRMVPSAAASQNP
UniProt Q96PZ2, 176-282: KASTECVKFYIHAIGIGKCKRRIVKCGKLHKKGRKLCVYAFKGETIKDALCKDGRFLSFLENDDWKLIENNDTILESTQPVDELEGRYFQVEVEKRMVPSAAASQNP
UniProt Q96PZ2, whole entry: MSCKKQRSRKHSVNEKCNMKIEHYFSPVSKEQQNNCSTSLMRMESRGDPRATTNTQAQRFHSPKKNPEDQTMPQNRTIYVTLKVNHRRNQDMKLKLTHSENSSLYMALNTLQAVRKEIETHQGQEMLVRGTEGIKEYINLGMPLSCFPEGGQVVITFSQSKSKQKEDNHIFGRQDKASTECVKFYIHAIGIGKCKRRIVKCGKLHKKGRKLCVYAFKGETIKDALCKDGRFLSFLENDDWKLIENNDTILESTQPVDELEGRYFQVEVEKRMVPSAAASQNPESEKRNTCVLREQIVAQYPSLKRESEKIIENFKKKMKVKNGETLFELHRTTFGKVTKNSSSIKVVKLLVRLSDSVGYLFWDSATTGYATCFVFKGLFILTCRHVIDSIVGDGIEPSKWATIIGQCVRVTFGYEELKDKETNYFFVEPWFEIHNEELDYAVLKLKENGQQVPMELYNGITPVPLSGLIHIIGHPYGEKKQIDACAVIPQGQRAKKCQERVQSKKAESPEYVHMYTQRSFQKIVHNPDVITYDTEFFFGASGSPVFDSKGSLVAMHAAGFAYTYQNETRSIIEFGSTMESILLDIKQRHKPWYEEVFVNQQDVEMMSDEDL
UniProt Q96PZ2, 1-282: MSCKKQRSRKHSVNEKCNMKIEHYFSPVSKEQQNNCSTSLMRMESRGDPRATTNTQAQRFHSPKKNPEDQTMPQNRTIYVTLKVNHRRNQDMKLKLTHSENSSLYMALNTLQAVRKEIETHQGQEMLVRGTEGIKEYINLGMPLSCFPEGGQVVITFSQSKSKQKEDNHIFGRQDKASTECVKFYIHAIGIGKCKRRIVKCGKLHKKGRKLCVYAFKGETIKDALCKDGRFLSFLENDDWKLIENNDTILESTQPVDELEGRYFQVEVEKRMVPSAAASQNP

According to publication PMC7067828:

What was measured:
[1] = target: MBP-FAM111A 1-254 (human) (UniProt Q96PZ2); test: EMSA; conditions: 5 mM Mg2+; EMSA: 25 mM Tris-HCl pH 7.5, 5 mM MgCl2, 10% glycerol, 20 ng/ul BSA, 1 mM DTT, 0.7 pmol DNA in 10 ul, on ice 1 h; recombinant protein; residues …; protein details: N-terminal MBP; label: 5' IRDye700; single-stranded DNA
[2] = target: MBP-FAM111A 1-282 F231A (human) (UniProt Q96PZ2); test: EMSA; conditions: 5 mM Mg2+, EMSA: 25 mM Tris-HCl pH 7.5, 5 mM MgCl2, 10% glycerol, 20 ng/ul BSA, 1 mM DTT, 0.7 pmol DNA in 10 ul, on ice 1 h, recombinant protein, residues …, protein details: N-terminal MBP
[3] = target: MBP-FAM111A 1-282 del176-208 (human) (UniProt Q96PZ2); test: EMSA; conditions: 5 mM Mg2+; EMSA: 25 mM Tris-HCl pH 7.5, 5 mM MgCl2, 10% glycerol, 20 ng/ul BSA, 1 mM DTT, 0.7 pmol DNA in 10 ul, on ice 1 h; recombinant protein; residues …; protein details: N-terminal MBP; label: 5' IRDye700; single-stranded DNA
[4] = target: MBP-FAM111A 1-282 del209-254 (human) (UniProt Q96PZ2); test: EMSA; conditions: 5 mM Mg2+; EMSA: 25 mM Tris-HCl pH 7.5, 5 mM MgCl2, 10% glycerol, 20 ng/ul BSA, 1 mM DTT, 0.7 pmol DNA in 10 ul, on ice 1 h; recombinant protein; residues …; protein details: N-terminal MBP; label: 5' IRDye700; single-stranded DNA
[5] = target: MBP-FAM111A 176-282 F231A (human) (UniProt Q96PZ2); test: EMSA; conditions: 5 mM Mg2+, EMSA: 25 mM Tris-HCl pH 7.5, 5 mM MgCl2, 10% glycerol, 20 ng/ul BSA, 1 mM DTT, 0.7 pmol DNA in 10 ul, on ice 1 h, recombinant protein, residues 176-282, protein details: N-terminal MBP
[6] = target: MBP-FAM111A 176-282 (human) (UniProt Q96PZ2); test: fluorescence polarization; conditions: FP: 10 mM HEPES-NaOH pH 7.5, 150 mM NaCl, 10 nM DNA; recombinant protein; residues 176-282; protein details: N-terminal MBP; label: 5' 6-FAM; single-stranded DNA
[7] = target: MBP-FAM111A 176-282 F231A (human) (UniProt Q96PZ2); test: fluorescence polarization; conditions: FP: 10 mM HEPES-NaOH pH 7.5, 150 mM NaCl, 10 nM DNA; recombinant protein; residues 176-282; protein details: N-terminal MBP; label: 5' 6-FAM; single-stranded DNA
[8] = target: GST-FAM111A-strep (human) (UniProt Q96PZ2); test: EMSA; conditions: 5 mM Mg2+; EMSA: 25 mM Tris-HCl pH 7.5, 5 mM MgCl2, 10% glycerol, 20 ng/ul BSA, 1 mM DTT, 0.7 pmol DNA in 10 ul, on ice 1 h; recombinant protein; residues …; protein details: N-terminal GST, C-terminal tandem Strep; label: 5' IRDye700 on strand 1
[9] = target: MBP-FAM111A 1-282 (human) (UniProt Q96PZ2); test: EMSA; conditions: 5 mM Mg2+; EMSA: 25 mM Tris-HCl pH 7.5, 5 mM MgCl2, 10% glycerol, 20 ng/ul BSA, 1 mM DTT, 0.7 pmol DNA in 10 ul, on ice 1 h; recombinant protein; residues …; protein details: N-terminal MBP; label: 5' IRDye700 on strand 1
[10] = target: MBP-FAM111A 176-282 (human) (UniProt Q96PZ2); test: EMSA; conditions: 5 mM Mg2+; EMSA: 25 mM Tris-HCl pH 7.5, 5 mM MgCl2, 10% glycerol, 20 ng/ul BSA, 1 mM DTT, 0.7 pmol DNA in 10 ul, on ice 1 h; recombinant protein; residues 176-282; protein details: N-terminal MBP; label: 5' IRDye700 on strand 1
[11] = label: 5' IRDye700, single-stranded DNA

## GTTTTCCCAGTCACGACGATGCTCCGGTACTCCAGTGTAGGCATATTACGAATTCTTGAGGCAGGCATGGTAGCT [ssDNA O3063 (75 nt)]
[1]
  binding result: binds more weakly
[2]; [11]
  binding result: binds more weakly
[3]
  binding result: binds more weakly
[4]
  binding result: binds more weakly
[5]; [11]
  binding result: binds more weakly

## CGACGATGCTCCGGTACTCCAGTGTAGGCAT [6-FAM-O1676 (31 nt)]
[6]
  binding result: binds
[7]
  binding result: binds more weakly

## GTTTTCCCAGTCACGACGATGCTCCGGTACTCCAGTGTAGGCATATTACGAATTCTTGAGGCAGGCATGGTAGCT (double strand) [dsDNA O3063/O4786]
[8]
  binding result: binds more weakly

## GTTTTCCCAGTCACGACGATGCTCCGGTACTCCAGTGTAGGCATATTACGAATTCTTGAGGCAGGCATGGTAGCT / AGCTACCATGCCTGCCTCAAGAATTCGTAATATGCCTACACTGGACCGTACTTCGCCTAGTAGACTGCCTTCCCG [Y fork O3063/O4787]
[9]
  binding result: binds
[2]; label: 5' IRDye700 on strand 1
  binding result: binds more weakly
[10]
  binding result: binds
[5]; label: 5' IRDye700 on strand 1
  binding result: binds more weakly

For part of these data: A weaker result is weaker than the reference pair of the same experiment. For part of these data: The exact form of at least one protein or probe is not confirmed. For part of these data: At least one verdict rests on a figure or table, not on a statement of the authors.
